Reference: US20240294876A1, “METHODS FOR THE EXPANSION OF HUMAN GRANULOCYTE-MACROPHAGE PROGENITORS AND APPLICATIONS THEREOF” (University of Southern California, priority 2021, published 2024)
Entries after “also recorded” stand apart in the source; their conditions may differ. For at least one compound, name, drawing or mass did not settle the structure. Some of these results come from one statement about several compounds together.

Experiments:
Assay type in all cases: cell-based
[1] = system: bone marrow cells isolated from adult C57BL/6 mice; experiment: Small molecule screen for colony formation of mouse bone marrow cells in serum-free N2B27; conditions: 96-well plates, serum-free N2B27, single small molecule, 7 days in culture
Text: (A) Schematic of the experimental design to identify growth factors and small molecules that can promote expansion of mouse bone marrow-derived stem cells. (B) Representative phase-contrast images of mouse bone marrow cells cultured in N2B27 supplemented with the indicated small molecule inhibitors for 7 days. (C) Representative phase-contrast images of mouse bone marrow cells cultured in N2B27 supplemented with SCF plus GDC0879 or SB590885 for 3 passages. (D) Cell growth curves. Bone marrow cells isolated from C57BL/6J mice were plated into 24-well plates at a density of 2×10^5 cells/well and cultured in B7 medium supplemented with the indicated small molecules/growth factor. Cells were counted and passaged every 3 days. Data are represented as mean±SD from three independent experiments. (E) Bone marrow cells isolated from C57BL/6J mice were cultured in B7 medium supplemented with SCF/2i. Cells were passaged every 3 days. Representative phase-contrast pictures showing SCF/2i cells at different passages. (F) Cytogenetic analysis of SCF/2i cells using the GWT banding method. Bone marrow cells isolated from a female C57BL/6J mouse were expanded in SCF/2i for 8 passages before used for cytogenetic analysis. […] (G) Sequential images of individual bone marrow cells during expansion in B7 medium supplemented with SCF/2i. […]

[2] = system: mouse GMPs; experiment: Ex vivo expansion of mouse bone marrow-derived cells / mouse GMPs; conditions: for expansion of cells with a uniform cell morphology, number of passages: SCF combined with either GDC-0879 or SB590885, afterwards cells differentiated and stopped proliferating
Text: (A) Schematic of the experimental design to identify growth factors and small molecules that can promote expansion of mouse bone marrow-derived stem cells. (B) Representative phase-contrast images of mouse bone marrow cells cultured in N2B27 supplemented with the indicated small molecule inhibitors for 7 days. (C) Representative phase-contrast images of mouse bone marrow cells cultured in N2B27 supplemented with SCF plus GDC0879 or SB590885 for 3 passages. (D) Cell growth curves. Bone marrow cells isolated from C57BL/6J mice were plated into 24-well plates at a density of 2×10^5 cells/well and cultured in B7 medium supplemented with the indicated small molecules/growth factor. Cells were counted and passaged every 3 days. Data are represented as mean±SD from three independent experiments. (E) Bone marrow cells isolated from C57BL/6J mice were cultured in B7 medium supplemented with SCF/2i. Cells were passaged every 3 days. Representative phase-contrast pictures showing SCF/2i cells at different passages. (F) Cytogenetic analysis of SCF/2i cells using the GWT banding method. Bone marrow cells isolated from a female C57BL/6J mouse were expanded in SCF/2i for 8 passages before used for cytogenetic analysis. […] (G) Sequential images of individual bone marrow cells during expansion in B7 medium supplemented with SCF/2i. SCF/2i-expanded bone marrow cells were plated into 96-well plates at a density of 50 cells/well and cultured in SCF/2i. Sequential images were taken using the Keyence BZ-X710 microscopy every 24 hours. 15.7±4.0 colonies formed per well on day 4 (n=3×96). Data are represented as mean±SD from three independent experiments.
Mouse GMP derivation, expansion, and differentiation. Cells were cultured at 37° C. in a 5% CO2 water jacket incubator (Thermo Scientific). Bone marrow cells isolated from C57BL/6J, mTmG or CAG-Cas9-EGFP mice were plated into 6-well plates at a density of 2×10^6 cells/well and cultured in 2 mL B7 medium supplemented with 50 ng/mL SCF, 1 μM GDC-0879, and 10 μM SKL2001 (SCF/2i). […]

[3] = system: human GMPs; experiment: Ex vivo expansion of human GMPs sorted from cord blood; conditions: 0.5 μM, in modified SCF/2i
Text: (A) Growth curves of human GMPs. Human GMPs were FACS sorted from cord blood and cultured in the designated conditions. Cells were passaged every 3 days and replated into 12-well plates at a density of 1×10^5 cells/well. Data are represented as mean±SD from three independent experiments. (B) Structure of TN-2-30. (C) Representative phase-contrast images of human GMPs cultured in modified SCF/2i. P, passage number. (D) Sorted human GMPs were expanded in modified SCF/2i and induced to differentiate towards granulocytes by treatment with 30 ng/ml human G-CSF for 10 days. Differentiated cells were analyzed by Giemsa staining (upper panel) and flow cytometry (lower panel). Flow cytometry data are represented as mean±SD from three independent experiments. (E) Relative MPO activities of human GMPs and human GMP-derived granulocytes stimulated with or without PMA for 2 hours. Differentiated cells generated in (D) were plated into 96-well plates at a density of 2×10^4 cells/well and stimulated with or without PMA for 2 hours, after which MPO activities in the supernatants were measured. Data are represented as mean±SD from three independent experiments. […] (H) Differentiated cells generated in (D) and (F) were plated into 96-well plates at a density of 2×10^4 cells/well and stimulated with or without 500 ng/ml LPS for 6 hours, after which cytokine secretion in the supernatants was measured by ELISA. […]

In the case of `OCCn1cc(-c2ccc3c(c2)CC/C3=N\O)c(-c2ccncc2)n1` [GDC-0879], the “formation of colonies with uniform cell morphology” value [1] is reported as “clusters of colonies were observed being formed; also recorded: significantly promote the formation of colonies”, the “expansion of cells with a uniform cell morphology, number of passages” value [2] is reported as 3-4 passages and the “expansion of the cells, SCF and GDC-0879 compared with SCF and SB590885” value ([2]; combination with SCF) is reported as “slightly better than SCF and SB590885”.
For `CN(C)CCOc1ccc(-c2nc(-c3ccncc3)c(-c3ccc4c(c3)CC/C4=N\O)[nH]2)cc1` [SB590885], the “formation of colonies with uniform cell morphology” value [1] was “clusters of colonies were observed being formed”, the “expansion of cells with a uniform cell morphology, number of passages” value [2] was 3-4 passages and the “human GMP proliferation rate on replacement of GDC-0879” value [3] was “slightly increase”.
